Literature values, collected in patent US20160058712A1, “3-HYDROXYPTEROSTILBENE AND THERAPEUTIC APPLICATIONS THEREOF” (priority 2014, published 2016).
At least one compound was matched to its structure with a doubt left.

Test system: multi drug resistant and BCR-ABL-expressing leukemia cells
Settings: Tolomeo et al. 2005; cited from earlier work

Compound: COc1cc(/C=C/c2ccc(O)cc2)cc(OC)c1 [Pterostilbene, pterostilbene]
- apoptosis induction in leukemia cells: effective apoptosis-inducing agents
